One experiment deals with Flag–ARTS WT. Description: co-IP; HEK293T cells cotransfected with Flag–ARTS, HA–Livin and Myc–SIAH1 (WT or mutants); IP with anti-Flag, anti-HA or anti-Myc, immunoblot. Background: Immunoblotting shows a protein as a band on a membrane.
Experiment [1] addresses apoptosis-related protein in the transforming growth factor-β signaling pathway (ARTS) (human (endogenous in MDA-MB-231)). Briefly: proximity ligation; Duolink In Situ PLA on fixed MDA-MB-231 cells under PBS, DOX or DTX.
Experiment [2] shares this target. Briefly: co-IP; anti-ARTS IP of endogenous proteins, whole-cell lysates (RIPA buffer) of MDA-MB-231 cells treated with DOX or DTX.
For experiment [3] the target is unchanged. Description: co-IP; subcellular fractionation (nuclear/cytosolic/mitochondrial) and anti-ARTS IP, cells treated with DOX or DTX; complex in the cytosolic fraction.
Experiment [4] shares this target. Briefly: condition: only PBS-treated cells (without DOX or DTX); co-IP; anti-ARTS IP of endogenous proteins, whole-cell lysates (RIPA buffer) of PBS-treated MDA-MB-231 cells.
Experiment [5] shares this target. Briefly: condition: only with the caspase-8 inhibitor Z-IETD-FMK; co-IP; anti-ARTS IP of endogenous proteins, MDA-MB-231 cells treated with DOX or DTX plus the caspase-8 inhibitor Z-IETD-FMK.

These are yes or no findings as the source states them, for the method shown. Binding seen in cells or lysates may run through a third protein. For part of these data: Binding can be weak; no strength is given. For part of these data: Sequences can lack the tags named with a protein.

B1: Myc–SIAH1 WT (enzyme, UniProt Q8IUQ4 1-282)
chain: MSRQTATALPTGTSKCPPSQRVPALTGTTASNNDLASLFECPVCFDYVLPPILQCQSGHLVCSNCRPKLTCCPTCRGPLGSIRNLAMEKVANSVLFPCKYASSGCEITLPHTEKADHEELCEFRPYSCPCPGASCKWQGSLDAVMPHLMHQHKSITTLQGEDIVFLATDINLPGAVDWVMMQSCFGFHFMLVLEKQEKYDGHQQFFAIVQLIGTRKQAENFAYRLELNGHRRRLTWEATPRSIHEGIATAIMNSDCLVFDTSIAQLFAENGNLGINVTISMC
As to B1, the binding entry in the experiment with Flag–ARTS WT was “binds”.

B2: Livin (BIRC7) (protein, UniProt Q96CA5 1-298)
chain: MGPKDSAKCLHRGPQPSHWAAGDGPTQERCGPRSLGSPVLGLDTCRAWDHVDGQILGQLRPLTEEEEEEGAGATLSRGPAFPGMGSEELRLASFYDWPLTAEVPPELLAAAGFFHTGHQDKVRCFFCYGGLQSWKRGDDPWTEHAKWFPSCQFLLRSKGRDFVHSVQETHSQLLGSWDPWEEPEDAAPVAPSVPASGYPELPTPRREVQSESAQEPGGVSPAEAQRAWWVLEPPGARDVEAQLRRLQEERTCKVCLDRAVSIVFVPCGHLVCAECAPGLQLCPICRAPVRSRVRTFLS
With B2, the binding entry in experiment [1] is “binds”; in experiment [2] it was “binds”; in experiment [3], “binds”; in experiment [4] it was “no binding”; in experiment [5] it was “no binding”.

Values taken from publication PMC12805590.
